From US12568967B2, “Compositions comprising pyridine carboxylate herbicides with synthetic auxin herbicides or auxin transport inhibitors” (priority 2018, dated 2026)
“And” between values parts separate entries of the source, which are not always exact repeats. Equal values may be shown once. The name of at least one read-out is uncertain.

How the values were obtained:
Assay type in all cases: in vivo
[1] = tested on: Brassica napus (winter rape, BRSNW); assay: Greenhouse postemergence trial BRSNW; conditions: c1-3 Compound A 7.5/10/15
[2] = tested on: Polygonum convolvulus (wild buckwheat, POLCO); assay: Greenhouse postemergence trial POLCO; conditions: c1-3 Compound A 7.5/10/15
[3] = tested on: Cirsium arvense (Canadian thistle, CIRAR); assay: Greenhouse postemergence trial CIRAR; conditions: c1-3 Compound A 7.5/10/15
[4] = tested on: Sinapis arvensis (wild mustard, SINAR); assay: Greenhouse postemergence trial SINAR; conditions: c1-3 Compound A 7.5/10/15
[5] = tested on: Salsola kali (Russian thistle, SASKR); assay: Greenhouse postemergence trial SASKR; conditions: c1-3 Compound A 7.5/10/15; c4 Aminopyralid 5; c5-7 A 7.5/10/15 + Aminopyralid 5 g/ha;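 further: greenhouse plants sprayed at second or third true leaf stage, injury rated by eye after 20-22 d against solvent-blank controls, 0 meaning no injury, 100 complete kill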
[6] = tested on: Kochia scoparia (kochia, KCHSC); assay: Greenhouse postemergence trial KCHSC; conditions: c1-3 Compound A 7.5/10/15
[7] = tested on: Matricaria chamomilla (wild chamomile, MATCH); assay: Greenhouse postemergence trial MATCH; conditions: c1-3 Compound A 7.5/10/15;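 further: greenhouse plants sprayed at second to third true leaf stage, injury rated by eye 20-22 d later versus solvent-blank controls on 0–100 scale, 0 no injury, 100 complete kill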
[8] = c4 Aminopyralid 5, c5-7 A 7.5/10/15 + Aminopyralid 5 g/ha
[9] = c4-5 Fluroxypyr-MHE 100/140, c6-8, c9-11 A 7.5/10/15 + Fluroxypyr-MHE 100, 140 g/ha

**Q.** Which results are given for `Nc1cc(Cl)nc(C(=O)O)c1Cl` [Aminopyralid, aminopyralid, reference compound]?
**A.** % visual injury [1, 8]: 0%; % visual injury [2, 8]: 70%; % visual injury [3, 8]: 35%; % visual injury [4, 8]: 20%; % visual injury [5]: 0%; % visual injury [6, 8]: 0%; % visual injury [7, 8]: 0%

**Q.** Which results are given for `CCCCCCC(C)OC(=O)COc1nc(F)c(Cl)c(N)c1Cl` (stereo not shown) [Fluroxypyr-MHE, fluroxypyr-meptyl, reference compound]?
**A.** % visual injury [1, 9]: 30% and 60%; % visual injury [2, 9]: 97% and 99%; % visual injury [3, 9]: 0%; % visual injury [4, 9]: 93% and 90%; % visual injury [6, 9]: 60% and 65%; % visual injury [7, 9]: 0% and 10%
